PubChem BioAssay AID1259308 | NCATS, 2017

- Test: 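Knock-downs that increase output of a recombinant reporter protein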 (primary screen)
- Cell system: human HEK293 embryonic kidney cells stably expressing firefly luciferase (HEK-CMV-Luc2-Hygro)
- Knock-down reagent: single siRNA against human genes, 0.8 pmol siRNA per well
- Duration: 72 h
- Detection: 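Reporter luminescence and viable-cell signal on separate replicate plates, given as percent of non-targeting control and median/MAD z-scores, plus per-cell luciferase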
- Scale: total luciferase, z-score and total luciferase, % of control: higher = more reporter protein produced; luciferase per cell, z-score: higher = more reporter output per viable cell; viable cells, % of control: higher = more viable cells
- Rule for the call: 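Active when the median/MAD z-score for overall luciferase is greater than 3; a gene was taken forward for validation with new siRNAs if at least two of its three siRNAs passed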
- Meaning of the calls: active = raised luciferase; inactive = no rise
Shown is a random part of about 59,000 reagents. About 1,510 of them (2.6%) were called active. 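Calls use total luciferase alone and ignore viability, so some active siRNAs may act by altering cell number.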 The numbers tell different reagents against one gene apart. Reagent sequences are not shown.

gene	reagent no.	total luciferase, z-score	total luciferase, % of control	luciferase per cell, z-score	viable cells, % of control	outcome
DCDC2C	1	0.46	91	-0.214	108	inactive
DCDC2C	2	-1.42	53.6	-0.139	62.1	inactive
DCDC2C	3	-0.794	66.1	-0.916	94	inactive
TMEM63A	1	0.575	93.3	0.158	100	inactive
TMEM63A	2	2.94	140	2.5	81.2	inactive
TMEM63A	3	-0.379	74.4	-0.783	102	inactive
RPL21P68	1	-2.15	39.2	-1.74	69.3	inactive
RPL21P68	2	-0.208	77.8	-0.0489	88	inactive
RPL21P68	3	-1.61	49.9	-1.3	78.4	inactive
FAM227A	1	-0.715	67.7	0.278	70.3	inactive
FAM227A	2	-0.257	76.8	0.34	78.4	inactive
FAM227A	3	0.0734	83.3	-0.466	105	inactive
CYB561D2	1	-1.12	59.6	-0.948	85.6	inactive
CYB561D2	2	3.08	143	2.47	83.5	active
CYB561D2	3	-0.858	64.8	-0.914	92.1	inactive
PPP1R9A	1	0.731	96.4	0.335	98.7	inactive
PPP1R9A	2	-1.17	58.5	-1.46	96.1	inactive
PPP1R9A	3	-0.143	79	-0.057	89.7	inactive
RASGEF1B	1	0.985	101	0.217	107	inactive
RASGEF1B	2	-0.174	78.4	-0.436	98.3	inactive
RASGEF1B	3	1.59	114	1.43	87.2	inactive
LINC01599	1	0.617	94.2	0.069	103	inactive
LINC01599	2	2.13	124	0.823	112	inactive
LINC01599	3	0.319	88.2	-0.403	110	inactive
TMEM116	1	1.07	103	1.63	75.1	inactive
TMEM116	2	-0.273	76.4	0.0792	83.7	inactive
TMEM116	3	-0.0885	80.1	0.101	87.2	inactive
TMEM116	4	-0.427	73.4	-0.133	84.9	inactive
TMEM116	5	1.35	109	1.36	84.9	inactive
TMEM116	6	-0.442	73.1	0.602	69.7	inactive
HOXB6	1	0.238	86.6	0.359	88.1	inactive
HOXB6	2	0.205	86	0.0884	93.8	inactive
HOXB6	3	-0.681	68.3	-0.929	97.5	inactive
CARD14	1	0.861	99	1.61	72.4	inactive
CARD14	2	0.895	99.7	0.538	96.7	inactive
CARD14	3	-0.262	76.7	0.959	66.6	inactive
KIRREL2	1	1.21	106	0.431	106	inactive
KIRREL2	2	0.021	82.3	0.525	80.1	inactive
KIRREL2	3	1.61	114	1.04	96.9	inactive
AHDC1	1	0.867	99.1	0.641	93.6	inactive
AHDC1	2	-1.46	52.9	-0.658	70.3	inactive
AHDC1	3	0.842	98.6	1.58	72.8	inactive
CD2	1	-0.176	78.4	-0.635	104	inactive
CD2	2	-1.35	55.1	0.451	54.7	inactive
CD2	3	0.949	101	0.177	107	inactive
AIRE	1	-2.59	30.3	-2.69	68.8	inactive
AIRE	2	-1.11	59.8	-0.0105	67	inactive
AIRE	3	1.86	119	1.4	91.9	inactive
PPP2R5D	1	-1.11	59.8	-0.218	70.7	inactive
PPP2R5D	2	0.109	84.1	-0.45	106	inactive
PPP2R5D	3	-0.25	76.9	-0.554	99.4	inactive
MCUB	1	4.6	173	2.87	91	active
MCUB	2	-2.12	39.8	-3.14	101	inactive
MCUB	3	-1.15	59.1	-1.56	99.4	inactive
MLH1	1	1.37	109	2.28	67	inactive
MLH1	2	-0.658	68.8	0.318	70.7	inactive
MLH1	3	-0.501	71.9	-0.523	92.2	inactive
KRABD5P1	1	1.5	112	2.17	70.6	inactive
KRABD5P1	2	2.06	123	1.37	95.8	inactive
KRABD5P1	3	0.326	88.4	-0.0643	100	inactive
SPG7	1	-0.346	75	0.021	83.4	inactive
SPG7	2	1.89	119	3.19	57.7	inactive
SPG7	3	-0.116	79.6	-0.933	114	inactive
COG1	1	-2.26	36.9	-1.75	65.4	inactive
COG1	2	1.26	107	2.21	66.8	inactive
COG1	3	0.353	88.9	-0.0416	100	inactive
H2AC8	1	-0.232	77.3	-0.261	92.5	inactive
H2AC8	2	-0.135	79.2	0.0684	86.9	inactive
H2AC8	3	0.896	99.7	0.134	108	inactive
CASZ1	1	0.884	99.5	0.773	90.7	inactive
CASZ1	2	-0.65	69	0.234	72.5	inactive
CASZ1	3	1.44	110	1.05	93.5	inactive
GPR17	1	-1.55	51	1.41	39.3	inactive
GPR17	2	0.365	89.2	-0.209	105	inactive
GPR17	3	1.93	120	2.83	63.8	inactive
